Taken from: PubChem BioAssay AID1259308 (NCATS, 2017)
Screen: 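Candidate targets for better recombinant protein yield in mammalian cells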 (primary screen). Cell system: human HEK293 embryonic kidney cells stably expressing firefly luciferase (HEK-CMV-Luc2-Hygro). Knock-down reagent: single siRNA against human genes, 0.8 pmol siRNA per well. Timing: 72 h. Measured: 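Luciferase light (ONE-Glo) measured on one replicate plate set and viability (CellTiter-Glo) on the other, scaled to a negative control siRNA, with robust z-scores and luciferase per cell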. Scale: total luciferase, z-score and total luciferase, % of control: higher = more reporter protein produced; luciferase per cell, z-score: higher = more reporter output per viable cell. Hit rule: 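An siRNA counts as active if its total luciferase robust z-score exceeds 3; genes with two or more such siRNAs out of three were retested with fresh siRNAs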. Meaning of the calls: active = raised luciferase; inactive = no rise.
The deposit covers about 59,000 reagents; shown is a random part of them. In the full data, about 1,510 (2.6%) are marked active. 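Calls use total luciferase alone and ignore viability, so some active siRNAs may act by altering cell number.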 Reagents against one gene are numbered here. Further read-outs or replicates are left out here.

target gene | siRNA no. | total luciferase, z-score | total luciferase, % of control | luciferase per cell, z-score | call
SLC38A6 | 1 | -1.32 | 55.6 | -1.6 | inactive
SLC38A6 | 2 | 0.323 | 88.3 | 0.915 | inactive
SLC38A6 | 3 | 2.52 | 132 | 1.52 | inactive
GPR34 (G protein-coupled receptor 34) | 1 | -0.236 | 77.2 | -0.282 | inactive
GPR34 (G protein-coupled receptor 34) | 2 | -1.44 | 53.3 | -1.54 | inactive
GPR34 (G protein-coupled receptor 34) | 3 | -1.8 | 46.1 | -1.73 | inactive
EGFR (epidermal growth factor receptor) | 1 | -0.193 | 78.1 | 0.449 | inactive
EGFR (epidermal growth factor receptor) | 2 | 1.47 | 111 | 1.27 | inactive
EGFR (epidermal growth factor receptor) | 3 | 0.249 | 86.8 | -0.363 | inactive
ANKRA2 (ankyrin repeat family A member 2) | 1 | -1.01 | 61.9 | -1.29 | inactive
ANKRA2 (ankyrin repeat family A member 2) | 2 | 2.24 | 126 | 2.92 | inactive
ANKRA2 (ankyrin repeat family A member 2) | 3 | -0.26 | 76.7 | -0.301 | inactive
SLC25A40 | 1 | -0.528 | 71.4 | 0.114 | inactive
SLC25A40 | 2 | 0.603 | 93.9 | 0.651 | inactive
SLC25A40 | 3 | -0.794 | 66.1 | -0.739 | inactive
SOX21 (SRY-box transcription factor 21) | 1 | -1.05 | 61 | 0.148 | inactive
SOX21 (SRY-box transcription factor 21) | 2 | -0.831 | 65.3 | -0.938 | inactive
SOX21 (SRY-box transcription factor 21) | 3 | 0.96 | 101 | 0.855 | inactive
DAND5 (DAN domain BMP antagonist family member 5) | 1 | -0.982 | 62.3 | -0.3 | inactive
DAND5 (DAN domain BMP antagonist family member 5) | 2 | -0.116 | 79.6 | -0.316 | inactive
DAND5 (DAN domain BMP antagonist family member 5) | 3 | 1.84 | 119 | 2.57 | inactive
MTRF1 (mitochondrial translation release factor 1) | 1 | -0.953 | 62.9 | -0.535 | inactive
MTRF1 (mitochondrial translation release factor 1) | 2 | -0.776 | 66.5 | -0.659 | inactive
MTRF1 (mitochondrial translation release factor 1) | 3 | 0.678 | 95.4 | 0.939 | inactive

Records above whose gene name begins with M or m (3):
target gene | siRNA no. | total luciferase, z-score | total luciferase, % of control | luciferase per cell, z-score | call
MTRF1 (mitochondrial translation release factor 1) | 1 | -0.953 | 62.9 | -0.535 | inactive
MTRF1 (mitochondrial translation release factor 1) | 2 | -0.776 | 66.5 | -0.659 | inactive
MTRF1 (mitochondrial translation release factor 1) | 3 | 0.678 | 95.4 | 0.939 | inactive

More records:
target gene | siRNA no. | total luciferase, z-score | total luciferase, % of control | luciferase per cell, z-score | call
CISH (cytokine inducible SH2 containing protein) | 1 | -0.486 | 72.2 | -0.269 | inactive
CISH (cytokine inducible SH2 containing protein) | 2 | 0.426 | 90.4 | 0.172 | inactive
CISH (cytokine inducible SH2 containing protein) | 3 | 0.156 | 85 | 0.135 | inactive
GPR63 (G protein-coupled receptor 63) | 1 | -0.676 | 68.4 | -0.445 | inactive
GPR63 (G protein-coupled receptor 63) | 2 | 0.0636 | 83.2 | -0.276 | inactive
GPR63 (G protein-coupled receptor 63) | 3 | -1.01 | 61.9 | -1.12 | inactive
GJA5 (gap junction protein alpha 5) | 1 | -0.0399 | 81.1 | -0.497 | inactive
GJA5 (gap junction protein alpha 5) | 2 | 1.03 | 102 | 0.702 | inactive
GJA5 (gap junction protein alpha 5) | 3 | -0.0395 | 81.1 | -0.0992 | inactive
EDDM3B (epididymal protein 3B) | 1 | 1.42 | 110 | 1.04 | inactive
EDDM3B (epididymal protein 3B) | 2 | -2.22 | 37.8 | -3.08 | inactive
EDDM3B (epididymal protein 3B) | 3 | -0.093 | 80 | 0.0516 | inactive
BMS1P12 (BMS1 pseudogene 12) | 1 | 0.0289 | 82.5 | 0.238 | inactive
BMS1P12 (BMS1 pseudogene 12) | 2 | 0.528 | 92.4 | 0.605 | inactive
BMS1P12 (BMS1 pseudogene 12) | 3 | 1.77 | 117 | 1.32 | inactive
